Values of other authors, collected in patent US20120010144A1, “Peg-albumin composition having at least one protected thiol region as a platform for medications” (priority 2009, published 2012).

Conditions: human liver

| Molecule | Concentration in liver tissue |
| --- | --- |
| Cc1c(C)c2c(c(C)c1O)CC[C@@](C)(CCC[C@H](C)CCC[C@H](C)CCCC(C)C)O2 [A-Tocopherol] | 50 (human) μmol/kg |
| O=C1O[C@H]([C@@H](O)CO)C(O)=C1O [Ascorbic acid] | 260 (human) μmol/kg |
| N[C@@H](CCC(=O)N[C@@H](CS)C(=O)NCC(=O)O)C(=O)O [Glutathione] | 6,400 (human) μmol/kg |
| COc1c(O)c(C)c(C/C=C(\C)CC/C=C(\C)CC/C=C(\C)CC/C=C(\C)CC/C=C(\C)CC/C=C(\C)CC/C=C(\C)CC/C=C(\C)CC/C=C(\C)CCC=C(C)C)c(O)c1OC [Ubiquinol] | 200 (human) μmol/kg |
| O=c1[nH]c(=O)c2[nH]c(=O)[nH]c2[nH]1 [Uric Acid] | 1,600 (human) μmol/kg |
| Carotenes | 5 (human, total μmol/kg |
